These are yes or no findings as the source states them, for the method shown. Binding seen in cells or lysates may run through a third protein. A result given as binding can be weak or reduced; the word gives no strength. Where a sequence is shown, tags or fusion partners need not be part of it.
What was measured:
[1] = target: T1, IHNV NV protein fused N-terminally to a triple flag tag (3xfNVihnv) (infectious hematopoietic necrosis virus (IHNV) 32-87) (UniProt Q08455); experiment: co-IP; co-transfected EPC cells, lysed at 48 h (150 mM NaCl, 50 mM Tris/HCl pH 8, 20 mM EDTA, 0.5% NP-40); IP with anti-Flag M2 or anti-HA and protein A-Sepharose; immunoblot
T1 sequence: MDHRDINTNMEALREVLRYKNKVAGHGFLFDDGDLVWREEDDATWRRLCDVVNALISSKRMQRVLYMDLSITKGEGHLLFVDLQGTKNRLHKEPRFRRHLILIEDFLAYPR

[2] = target: epitope-tagged (HA) PPM1Bb from EPC cells (fathead minnow) (fathead minnow (Pimephales promelas)); experiment: as above

Molecule: PPM1Aa (enzyme)
- binding [1]: no binding

Molecule: Salmon PPM1Bb (Atlantic salmon (Salmo salar)) (enzyme)
- binding [1]: binds

Molecule: epitope-tagged (HA) PPM1Bb from EPC cells (fathead minnow) (enzyme)
- binding [1]: binds

B1: IHNV NV protein fused N-terminally to a triple flag tag (3xfNVihnv) (protein, UniProt Q08455 1-111)
chain: MDHRDINTNMEALREVLRYKNKVAGHGFLFDDGDLVWREEDDATWRRLCDVVNALISSKRMQRVLYMDLSITKGEGHLLFVDLQGTKNRLHKEPRFRRHLILIEDFLAYPR
- binding [2]: binds
